The list shows a part of the results.

By UniProt entry, the sequences of proteins in these tests, tags left out. Where a name states a change or a piece, a line headed by the entry shows the natural chain unless it says otherwise.
UniProt Q6ZRP7: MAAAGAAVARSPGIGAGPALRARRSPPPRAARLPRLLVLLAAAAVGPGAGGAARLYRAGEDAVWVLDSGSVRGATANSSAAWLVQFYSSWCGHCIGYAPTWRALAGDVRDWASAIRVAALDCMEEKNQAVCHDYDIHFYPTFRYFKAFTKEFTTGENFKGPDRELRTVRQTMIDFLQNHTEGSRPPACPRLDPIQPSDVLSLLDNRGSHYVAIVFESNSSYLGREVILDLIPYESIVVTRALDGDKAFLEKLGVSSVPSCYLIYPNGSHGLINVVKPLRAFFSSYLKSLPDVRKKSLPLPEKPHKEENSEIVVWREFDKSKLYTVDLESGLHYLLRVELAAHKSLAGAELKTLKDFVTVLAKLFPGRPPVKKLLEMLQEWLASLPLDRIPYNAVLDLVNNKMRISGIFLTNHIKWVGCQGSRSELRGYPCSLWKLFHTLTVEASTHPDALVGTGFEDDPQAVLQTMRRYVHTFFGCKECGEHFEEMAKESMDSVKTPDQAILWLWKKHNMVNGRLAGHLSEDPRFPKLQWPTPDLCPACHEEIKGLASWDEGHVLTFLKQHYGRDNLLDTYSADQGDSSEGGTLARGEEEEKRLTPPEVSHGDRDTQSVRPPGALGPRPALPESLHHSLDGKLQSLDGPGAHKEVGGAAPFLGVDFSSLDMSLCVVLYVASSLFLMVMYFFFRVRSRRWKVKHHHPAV
UniProt Q13308: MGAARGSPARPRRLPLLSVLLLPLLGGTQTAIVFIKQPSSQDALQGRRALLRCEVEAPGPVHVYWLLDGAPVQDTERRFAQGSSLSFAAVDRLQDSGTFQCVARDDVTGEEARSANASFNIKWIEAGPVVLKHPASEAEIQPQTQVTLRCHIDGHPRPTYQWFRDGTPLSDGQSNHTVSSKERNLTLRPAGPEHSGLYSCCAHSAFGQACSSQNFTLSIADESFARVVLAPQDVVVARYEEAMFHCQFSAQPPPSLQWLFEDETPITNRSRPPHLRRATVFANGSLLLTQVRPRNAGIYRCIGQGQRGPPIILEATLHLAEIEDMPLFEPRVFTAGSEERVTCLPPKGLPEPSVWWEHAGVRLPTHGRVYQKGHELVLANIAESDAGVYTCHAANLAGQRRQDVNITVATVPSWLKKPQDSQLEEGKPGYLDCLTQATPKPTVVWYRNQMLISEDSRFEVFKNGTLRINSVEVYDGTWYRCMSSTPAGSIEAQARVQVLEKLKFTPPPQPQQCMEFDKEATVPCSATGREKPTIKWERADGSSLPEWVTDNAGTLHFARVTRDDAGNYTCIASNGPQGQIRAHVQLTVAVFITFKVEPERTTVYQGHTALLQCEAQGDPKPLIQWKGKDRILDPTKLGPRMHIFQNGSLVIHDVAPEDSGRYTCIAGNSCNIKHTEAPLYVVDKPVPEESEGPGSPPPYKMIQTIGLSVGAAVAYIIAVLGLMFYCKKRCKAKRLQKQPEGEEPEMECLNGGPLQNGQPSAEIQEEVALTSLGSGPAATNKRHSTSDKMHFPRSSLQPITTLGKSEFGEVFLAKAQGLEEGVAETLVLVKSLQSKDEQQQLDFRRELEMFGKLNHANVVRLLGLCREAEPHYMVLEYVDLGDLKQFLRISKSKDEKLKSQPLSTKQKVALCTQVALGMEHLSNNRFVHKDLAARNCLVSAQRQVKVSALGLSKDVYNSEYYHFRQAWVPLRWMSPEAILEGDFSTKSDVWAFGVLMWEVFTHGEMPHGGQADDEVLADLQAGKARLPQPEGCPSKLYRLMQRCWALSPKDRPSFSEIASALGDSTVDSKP
UniProt P25786: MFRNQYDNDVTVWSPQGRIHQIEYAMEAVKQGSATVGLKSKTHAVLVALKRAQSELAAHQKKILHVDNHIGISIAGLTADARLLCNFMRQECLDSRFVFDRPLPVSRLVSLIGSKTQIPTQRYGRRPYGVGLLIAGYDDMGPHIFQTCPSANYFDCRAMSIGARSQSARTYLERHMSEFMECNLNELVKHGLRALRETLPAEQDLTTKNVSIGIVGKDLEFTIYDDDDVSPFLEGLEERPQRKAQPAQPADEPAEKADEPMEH
UniProt Q9NR77: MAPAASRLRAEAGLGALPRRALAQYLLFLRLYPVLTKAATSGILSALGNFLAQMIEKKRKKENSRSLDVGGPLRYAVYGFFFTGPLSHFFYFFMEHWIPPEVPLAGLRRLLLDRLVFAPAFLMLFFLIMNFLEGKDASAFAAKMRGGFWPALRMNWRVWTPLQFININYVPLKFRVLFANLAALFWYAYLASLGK
UniProt P78330: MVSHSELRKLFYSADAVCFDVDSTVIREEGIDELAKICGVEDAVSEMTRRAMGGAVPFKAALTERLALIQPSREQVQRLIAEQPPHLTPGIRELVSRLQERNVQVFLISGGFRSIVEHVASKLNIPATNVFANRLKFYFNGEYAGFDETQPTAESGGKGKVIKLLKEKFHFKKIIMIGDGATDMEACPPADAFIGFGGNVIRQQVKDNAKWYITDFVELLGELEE
UniProt Q96PZ0: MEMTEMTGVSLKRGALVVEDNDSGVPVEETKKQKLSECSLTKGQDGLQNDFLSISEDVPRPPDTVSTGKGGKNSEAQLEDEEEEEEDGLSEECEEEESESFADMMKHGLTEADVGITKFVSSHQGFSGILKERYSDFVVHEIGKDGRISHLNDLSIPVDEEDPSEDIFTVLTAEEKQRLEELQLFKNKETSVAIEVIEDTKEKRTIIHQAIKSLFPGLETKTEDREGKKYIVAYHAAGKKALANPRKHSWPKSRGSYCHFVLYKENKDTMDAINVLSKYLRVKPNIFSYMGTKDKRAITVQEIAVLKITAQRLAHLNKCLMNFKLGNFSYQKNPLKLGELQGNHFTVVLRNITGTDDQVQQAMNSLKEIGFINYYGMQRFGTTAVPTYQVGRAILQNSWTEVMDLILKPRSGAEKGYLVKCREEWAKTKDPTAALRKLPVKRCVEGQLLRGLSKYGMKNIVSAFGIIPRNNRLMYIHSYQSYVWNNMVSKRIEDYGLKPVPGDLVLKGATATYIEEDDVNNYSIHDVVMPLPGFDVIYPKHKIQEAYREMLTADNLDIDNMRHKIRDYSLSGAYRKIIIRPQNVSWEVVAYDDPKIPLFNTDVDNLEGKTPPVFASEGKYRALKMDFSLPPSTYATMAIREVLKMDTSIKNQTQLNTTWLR
UniProt P20742, whole entry, looked up: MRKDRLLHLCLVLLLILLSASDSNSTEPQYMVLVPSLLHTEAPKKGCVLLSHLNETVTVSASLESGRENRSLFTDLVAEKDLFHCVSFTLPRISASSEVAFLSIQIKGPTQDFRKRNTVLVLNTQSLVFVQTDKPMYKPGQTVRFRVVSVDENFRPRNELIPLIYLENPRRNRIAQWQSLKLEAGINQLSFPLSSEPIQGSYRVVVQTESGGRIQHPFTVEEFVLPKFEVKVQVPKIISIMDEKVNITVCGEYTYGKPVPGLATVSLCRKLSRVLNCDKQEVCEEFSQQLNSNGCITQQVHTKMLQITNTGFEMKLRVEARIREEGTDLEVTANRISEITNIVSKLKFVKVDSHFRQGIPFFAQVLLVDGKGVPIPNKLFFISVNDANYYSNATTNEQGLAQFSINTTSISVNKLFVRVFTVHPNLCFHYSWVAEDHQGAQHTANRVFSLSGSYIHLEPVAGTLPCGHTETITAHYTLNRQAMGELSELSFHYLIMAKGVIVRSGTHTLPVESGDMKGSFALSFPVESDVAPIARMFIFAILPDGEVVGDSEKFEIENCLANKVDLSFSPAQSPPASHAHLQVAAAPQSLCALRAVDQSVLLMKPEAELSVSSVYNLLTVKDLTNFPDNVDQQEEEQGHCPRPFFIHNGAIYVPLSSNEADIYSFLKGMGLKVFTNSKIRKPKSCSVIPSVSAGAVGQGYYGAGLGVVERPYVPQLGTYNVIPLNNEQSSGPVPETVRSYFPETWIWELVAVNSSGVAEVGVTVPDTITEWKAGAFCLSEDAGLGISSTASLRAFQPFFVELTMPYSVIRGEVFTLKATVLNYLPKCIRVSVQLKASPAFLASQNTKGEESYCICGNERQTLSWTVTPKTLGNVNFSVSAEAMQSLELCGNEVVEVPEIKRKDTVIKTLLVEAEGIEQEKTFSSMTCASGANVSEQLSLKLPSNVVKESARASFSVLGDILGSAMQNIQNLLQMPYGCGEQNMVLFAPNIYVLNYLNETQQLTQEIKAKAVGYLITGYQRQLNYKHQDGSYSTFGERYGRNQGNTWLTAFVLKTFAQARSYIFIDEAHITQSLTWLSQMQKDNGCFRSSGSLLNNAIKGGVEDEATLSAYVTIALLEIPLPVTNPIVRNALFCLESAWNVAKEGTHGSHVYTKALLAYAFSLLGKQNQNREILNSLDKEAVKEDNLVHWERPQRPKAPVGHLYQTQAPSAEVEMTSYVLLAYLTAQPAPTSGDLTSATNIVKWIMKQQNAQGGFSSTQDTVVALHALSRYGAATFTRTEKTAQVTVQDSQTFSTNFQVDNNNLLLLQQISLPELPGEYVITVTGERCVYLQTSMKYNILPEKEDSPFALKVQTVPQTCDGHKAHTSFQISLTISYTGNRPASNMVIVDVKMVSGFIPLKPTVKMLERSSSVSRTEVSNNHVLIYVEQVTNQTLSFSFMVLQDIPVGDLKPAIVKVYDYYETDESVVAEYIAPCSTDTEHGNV
UniProt P09417: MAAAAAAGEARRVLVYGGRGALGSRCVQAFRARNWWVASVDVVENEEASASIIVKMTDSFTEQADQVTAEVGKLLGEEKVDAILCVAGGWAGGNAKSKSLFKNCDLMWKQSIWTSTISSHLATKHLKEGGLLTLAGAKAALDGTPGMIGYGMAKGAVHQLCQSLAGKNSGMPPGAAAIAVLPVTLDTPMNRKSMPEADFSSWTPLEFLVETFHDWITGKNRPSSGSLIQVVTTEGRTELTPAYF
UniProt Q06323: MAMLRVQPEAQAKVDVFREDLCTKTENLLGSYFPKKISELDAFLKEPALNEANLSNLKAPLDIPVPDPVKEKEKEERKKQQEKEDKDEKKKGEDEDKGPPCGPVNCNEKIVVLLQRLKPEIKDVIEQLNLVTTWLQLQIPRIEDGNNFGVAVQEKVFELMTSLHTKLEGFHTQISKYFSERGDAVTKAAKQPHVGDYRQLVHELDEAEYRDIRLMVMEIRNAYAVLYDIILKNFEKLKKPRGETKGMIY
UniProt P08575: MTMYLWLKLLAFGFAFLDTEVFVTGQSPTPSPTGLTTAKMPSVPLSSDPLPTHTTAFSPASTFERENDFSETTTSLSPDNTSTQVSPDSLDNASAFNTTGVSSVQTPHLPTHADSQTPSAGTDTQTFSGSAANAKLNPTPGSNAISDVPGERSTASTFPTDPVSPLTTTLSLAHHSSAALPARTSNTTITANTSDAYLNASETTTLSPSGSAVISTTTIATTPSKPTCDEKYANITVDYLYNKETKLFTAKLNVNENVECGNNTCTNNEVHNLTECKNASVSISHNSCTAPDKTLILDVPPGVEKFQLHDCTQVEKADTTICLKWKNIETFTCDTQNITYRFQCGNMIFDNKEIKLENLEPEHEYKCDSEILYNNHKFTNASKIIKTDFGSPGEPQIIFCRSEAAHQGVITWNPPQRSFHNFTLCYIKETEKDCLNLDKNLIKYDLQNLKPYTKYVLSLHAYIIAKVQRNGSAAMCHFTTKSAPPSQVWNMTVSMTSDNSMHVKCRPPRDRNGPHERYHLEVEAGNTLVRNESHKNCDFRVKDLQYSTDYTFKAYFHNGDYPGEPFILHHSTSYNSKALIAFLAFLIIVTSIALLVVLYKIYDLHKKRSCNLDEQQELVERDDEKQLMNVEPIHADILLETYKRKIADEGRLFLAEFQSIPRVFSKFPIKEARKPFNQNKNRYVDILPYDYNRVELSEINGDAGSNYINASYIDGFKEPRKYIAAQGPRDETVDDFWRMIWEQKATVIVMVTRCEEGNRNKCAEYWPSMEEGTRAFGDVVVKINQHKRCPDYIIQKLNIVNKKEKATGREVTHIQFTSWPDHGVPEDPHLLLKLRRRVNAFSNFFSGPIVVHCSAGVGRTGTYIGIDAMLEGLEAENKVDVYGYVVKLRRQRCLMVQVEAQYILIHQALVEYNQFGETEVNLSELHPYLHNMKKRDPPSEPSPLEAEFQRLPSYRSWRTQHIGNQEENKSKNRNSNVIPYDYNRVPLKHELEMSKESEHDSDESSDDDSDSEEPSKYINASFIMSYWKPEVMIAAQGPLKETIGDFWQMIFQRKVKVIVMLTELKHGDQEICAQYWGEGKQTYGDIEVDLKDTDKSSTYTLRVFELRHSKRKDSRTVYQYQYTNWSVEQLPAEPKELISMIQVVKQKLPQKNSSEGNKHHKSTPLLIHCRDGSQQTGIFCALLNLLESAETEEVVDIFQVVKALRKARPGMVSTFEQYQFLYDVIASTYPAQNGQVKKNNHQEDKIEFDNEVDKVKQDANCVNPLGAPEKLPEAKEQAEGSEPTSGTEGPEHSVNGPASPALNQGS
UniProt Q5JS54: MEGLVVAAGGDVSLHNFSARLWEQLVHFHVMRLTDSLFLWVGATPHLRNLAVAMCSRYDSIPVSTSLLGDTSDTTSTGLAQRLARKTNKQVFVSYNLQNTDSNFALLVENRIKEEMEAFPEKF

Compound in the first assay: CC1=C(C(CC(=O)N1)C2=CC=C(C=C2)C(F)(F)F)C(=O)NC3=C(C=C4C(=C3)C=NN4)F
The assay is described as follows: log2 fold change, soluble protein after heating vs DMSO (PISA); higher = thermal stabilisation; K562 cells, 10 uM, 30 min; active = over 0.2 and 3.5 SD of the protein, either way, in both replicates (recomputed). Put shortly: (§1)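 K562 cells at 2×10^6 cells/mL were given 10 μM compound for 30 min. Aliquots then went through 3 min of heating across 48°C-58°C, were pooled, and were extracted in PBS with 0.5% NP-40 at 4°C, and the supernatant after 21,000xg for 90 min was quantified by TMTpro 16plex LC-MS/MS with channel sums equalised. Thermal stability relative to control samples, from duplicates, is given as log2 fold change.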
With PSMA7 (UniProt O14818), the log2 fold change was inactive: 0.017.
For the target PTDSS2 (UniProt Q9BVG9), the log2 fold change is inactive: -0.019.
Turning to QSOX2 (UniProt Q6ZRP7), the log2 fold change was inactive: -0.008.
Take PTK7 isoform 6 (UniProt Q13308): the log2 fold change was inactive: -0.002.
As for PYM1 (UniProt Q9BRP8), the log2 fold change was inactive: 0.029.
Consider PSMA1 isoform 2 (UniProt P25786), for which the log2 fold change is inactive: 0.056.
For the target PSMA5 (UniProt P28066), the log2 fold change is inactive: 0.011.
Still for that read-out and setting: next, PTCD3 (UniProt Q96EY7): inactive: 0.009.
As to PXN (UniProt P49023), the log2 fold change is inactive: 0.058.
As for PSAP isoform 3 (UniProt P07602), the log2 fold change was inactive: -0.019.

Compound in a further assay: CC1=C(C2=C(C=C1)C(=O)C3=CC=CC=C3N2CCCN)C
Described as above. A digest of the protocol: as §1
Consider PXMP2 (UniProt Q9NR77), for which the log2 fold change was inactive: 0.029.
Take PSPH (UniProt P78330): the log2 fold change was inactive: 0.006.
The same measure, in the same setting: with QTRT1 (UniProt Q9BXR0) the figure was inactive: 0.025; with PUS7 isoform 2 (UniProt Q96PZ0), inactive: 0.098.
As to PZP (UniProt P20742), the log2 fold change is inactive: -0.218.
The same measure, in the same setting: next, QPCTL (UniProt Q9NXS2): inactive: 0.057.
Take PTMS (UniProt P20962): the log2 fold change was inactive: -0.011.
With PWP2 (UniProt Q15269), the log2 fold change is inactive: 0.19.
As to PSMA8 (UniProt Q8TAA3), the log2 fold change is inactive: -0.027.
Turning to QDPR (UniProt P09417), the log2 fold change is inactive: -0.053.
In the case of PSME1 (UniProt Q06323), the log2 fold change was inactive: -0.013.
Same read-out and setting: with PSME2 (UniProt Q9UL46) the figure was inactive: -0.075.
Consider PRTFDC1 (UniProt Q9NRG1), for which the log2 fold change was inactive: -0.065.
Turning to PSMB1 (UniProt P20618), the log2 fold change was inactive: 0.002.
Regarding PTPRA (UniProt P18433), the log2 fold change is inactive: 0.021.
As for PSMD4 (UniProt P55036), the log2 fold change is inactive: -0.044.
PUS7L (UniProt Q9H0K6): the log2 fold change is inactive: 0.01.
PSMD14 (UniProt O00487): the log2 fold change is inactive: 0.048.
The same measure, in the same setting: next, PUM2 (UniProt Q8TB72): inactive: 0.068; PTPRC (UniProt P08575): inactive: 0.01.
QTRT2 isoform 4 (UniProt Q9H974): the log2 fold change was inactive: -0.04.
Take PUS10 (UniProt Q3MIT2): the log2 fold change was inactive: -0.072.
In the case of PSMG4 isoform 2 (UniProt Q5JS54), the log2 fold change was inactive: 0.019.
Same read-out and setting: with PYCARD (UniProt Q9ULZ3) the figure was inactive: 0.078; with PSMA7 (UniProt O14818), inactive: -0.011.
As for PTDSS2 (UniProt Q9BVG9), the log2 fold change was inactive: 0.025.
For QSOX2 (UniProt Q6ZRP7), the log2 fold change was inactive: -0.009.
Still for that read-out and setting: with PTK7 isoform 6 (UniProt Q13308) the figure was inactive: -0.046.
On to PYM1 (UniProt Q9BRP8), for which the log2 fold change is inactive: -0.218.
Take PSMA1 isoform 2 (UniProt P25786): the log2 fold change is inactive: -0.062.
On the same count and under the same terms, with PSMA5 (UniProt P28066) the figure was inactive: 0; with PTCD3 (UniProt Q96EY7), inactive: -0.182; with PXN (UniProt P49023), inactive: -0.037.
Take PSAP isoform 3 (UniProt P07602): the log2 fold change is inactive: -0.091.

The values are drawn from the supplement of paper PMC10849652.
